Results are given in words; binding and its absence hold for the method and conditions named. Binding seen in cells or lysates may run through a third protein. Binding can be weak; no strength is given. Where a sequence is shown, tags or fusion partners need not be part of it.
Target: GFP-fused rat Hap1A (pEGFP-rHap1A) (rat)
Assay: co-IP; lysates of neuro-2a cells co-transfected with Bcr-myc and GFP, GFP-Hap1A or GFP-Hap1B; anti-GFP antibody on protein A magnetic beads, overnight at 4 C, 50 mM PIPES pH 6.8, 1 mM EGTA, 1 mM MgSO4; washed with 0.1% NP-40; immunoblot with anti-Bcr and anti-GFP

B1: myc-tagged mouse Bcr (pCMV6-mBcr-myc, OriGene) (protein, UniProt Q6PAJ1 1-1270)
chain: MVDSVGFAEAWRAQFPDSEPPRMELRSVGDIEQELERCKASIRRLEQEVNQERFRMIYLQTLLAKEKKSYDRQRWGFRRAAQPPDGAAEPRASAPRPPPAPADGADPAPVEESEARPDGEGSPSKGRSASARRPAAAASADRDDRGPPTSVAALRSNFEKIRKGPAQPGSADAEKPFYVNVEFHHERGLVKVNDKEVSDRISSLGSQAMQMERKKSQQSAGQGLGEAPRPHYRGRSSESSCGLDGDYEDAELNPRFLKDNLINANGGNRPPWPPLEYQPYQSIYVGGMMVEGEGKSPLLRSQSTSEQEKRLTWPRRSYSPRSFEDSGGGYTPDCSSNENLTSSEEDFSSGQSSRVSPSPTTYRMFRDKSRSPSQNSQQSFDSSSPPTPQCQKRHRQCQVVVSEATIVGVRKTGQIWPSDGDSTFQGEADSSFGTPPGYGCAADQAEEQRRHQDGLPYIDDSPSSSPHLSSKGRGSLASGALDPTKVSELDLEKGLEMRKWVLSGILASEETYLSHLEALLLPMKPLKAAATTSQPVLTSQQIETIFFKVPELYEIHKEFYDGLFPRVQQWSHQQRVGDLFQKLASQLGVYRAFVDNYGVAMETAEKCCQANAQFAEISENLRARSNKDVKDSTTKNSLETLLYKPVDRVTRSTLVLHDLLKHTPSSHPDHSLLQDALRISQNFLSSINEEITPRRQSMTVKKGEHRQLLKDSFMVELVEGARKLRHIFLFTDLLLCTKLKKQSGGKTQQYDCKWYIPLTDLSFQMVDELEALPNIPLVPDEELDALKIKISQIKSDIQREKRANKGSKVMERLRKKLSEQESLLLLMSPSMAFRVHSRNGKSYTFLISSDYERAEWRESIREQQKKCFKSFSLTSVELQMLTNSCVKLQTVHHIPLTINKEDDESPGLYGFLHVIVHSATGFKQSSNLYCTLEVDSFGYFVNKAKTRVYRDTTEPNWNEEFEIELEGSQTLRILCYEKCYNKMKMTKEDGESADKLMGKGQVQLDPQTLQDRDWQRTVIDMNGIEVKLSVKFTSREFSLKRMPSRKQTGVFGVKIAVVTKRERSKVPYIVRQCVEEIERRGMEEVGIYRVSGVATDIQALKAAFDVNNKDVSVMMSEMDVNAIAGTLKLYFRELPEPLFTDEFYPNFAEGIALSDPVAKESCMLNLLLSLPEANLLTFLFLLDHLKRVAEKETVNKMSLHNLATVFGPTLLRPSEKESKLPANPSQPITMTDSWSLEVMSQVQVLLYFLQLEAIPAPDSKRQSILFSTEV
With B1 the binding was “binds”.
